# Screening data, single-dose tests

Amino acid sequences for entries named in this document (tags omitted).
UniProt P9WFT3, whole entry: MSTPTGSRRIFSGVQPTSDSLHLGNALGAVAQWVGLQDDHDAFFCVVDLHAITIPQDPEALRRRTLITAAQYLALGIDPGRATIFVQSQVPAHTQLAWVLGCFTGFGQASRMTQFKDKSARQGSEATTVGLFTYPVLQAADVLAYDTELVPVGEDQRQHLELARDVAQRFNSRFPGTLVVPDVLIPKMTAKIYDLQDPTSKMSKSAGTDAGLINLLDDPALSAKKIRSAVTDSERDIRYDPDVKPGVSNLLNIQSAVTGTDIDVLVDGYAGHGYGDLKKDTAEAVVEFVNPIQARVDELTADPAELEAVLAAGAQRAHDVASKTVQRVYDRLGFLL
UniProt I6X8D2, whole entry: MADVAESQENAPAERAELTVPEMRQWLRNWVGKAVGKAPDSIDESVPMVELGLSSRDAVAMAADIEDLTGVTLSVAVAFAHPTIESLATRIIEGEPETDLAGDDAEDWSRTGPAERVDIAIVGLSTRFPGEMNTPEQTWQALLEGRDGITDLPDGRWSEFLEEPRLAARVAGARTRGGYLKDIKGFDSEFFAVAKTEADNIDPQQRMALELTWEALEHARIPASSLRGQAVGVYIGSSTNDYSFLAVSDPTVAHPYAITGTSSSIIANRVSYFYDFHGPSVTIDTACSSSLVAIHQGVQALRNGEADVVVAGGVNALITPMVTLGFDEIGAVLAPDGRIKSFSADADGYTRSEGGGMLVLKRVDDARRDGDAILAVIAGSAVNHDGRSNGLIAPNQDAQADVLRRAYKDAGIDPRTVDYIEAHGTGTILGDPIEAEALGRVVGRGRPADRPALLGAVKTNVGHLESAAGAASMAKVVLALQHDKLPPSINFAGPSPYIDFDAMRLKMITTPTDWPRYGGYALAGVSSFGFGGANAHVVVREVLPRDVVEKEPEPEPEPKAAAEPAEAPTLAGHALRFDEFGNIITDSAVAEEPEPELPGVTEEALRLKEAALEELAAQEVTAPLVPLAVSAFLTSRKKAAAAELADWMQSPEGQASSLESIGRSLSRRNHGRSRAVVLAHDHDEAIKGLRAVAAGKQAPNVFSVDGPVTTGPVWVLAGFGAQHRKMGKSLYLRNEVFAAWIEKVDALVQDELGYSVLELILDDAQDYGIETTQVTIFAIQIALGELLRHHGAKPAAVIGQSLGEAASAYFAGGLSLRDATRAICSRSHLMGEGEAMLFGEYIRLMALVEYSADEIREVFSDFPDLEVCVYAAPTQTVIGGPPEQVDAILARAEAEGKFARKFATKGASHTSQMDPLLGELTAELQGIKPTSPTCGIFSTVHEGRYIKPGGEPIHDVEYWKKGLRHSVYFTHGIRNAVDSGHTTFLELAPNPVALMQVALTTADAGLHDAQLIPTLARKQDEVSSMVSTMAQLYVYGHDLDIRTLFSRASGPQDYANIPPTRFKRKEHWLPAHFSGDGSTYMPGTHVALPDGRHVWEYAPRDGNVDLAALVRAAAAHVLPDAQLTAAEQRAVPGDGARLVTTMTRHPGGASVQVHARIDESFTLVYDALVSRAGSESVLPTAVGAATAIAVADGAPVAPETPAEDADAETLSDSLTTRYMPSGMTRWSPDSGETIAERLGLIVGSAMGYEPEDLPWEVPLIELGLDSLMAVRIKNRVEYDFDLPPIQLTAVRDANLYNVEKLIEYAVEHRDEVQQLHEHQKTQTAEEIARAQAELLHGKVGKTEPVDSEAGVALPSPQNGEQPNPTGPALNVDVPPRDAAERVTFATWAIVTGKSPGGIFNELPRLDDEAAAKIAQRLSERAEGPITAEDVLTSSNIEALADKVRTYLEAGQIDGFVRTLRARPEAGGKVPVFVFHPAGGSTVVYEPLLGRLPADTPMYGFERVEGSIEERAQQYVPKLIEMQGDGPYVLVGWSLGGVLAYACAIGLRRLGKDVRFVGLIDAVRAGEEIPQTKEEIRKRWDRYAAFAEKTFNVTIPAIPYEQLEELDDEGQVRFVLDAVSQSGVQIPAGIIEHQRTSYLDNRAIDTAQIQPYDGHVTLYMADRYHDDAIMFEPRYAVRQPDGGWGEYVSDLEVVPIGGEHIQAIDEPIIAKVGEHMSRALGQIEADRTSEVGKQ

A: 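Tryptophan-tRNA ligase, Mycobacterium tuberculosis (UniProt P9WFT3). Enzyme assay of tryptophanyl-tRNA synthetase; the read-out is not stated. Concentration: 10 µM. Higher most likely means stronger inhibition; the record gives no direction and few retests gave an IC50. About 65,000 compounds were tested under these conditions; 0.098% (about 64) showed 50% or more at least once.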
B: 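Polyketide synthase Pks13, Mycobacterium tuberculosis (UniProt I6X8D2). Enzyme assay of the thioesterase domain of polyketide synthase 13; the read-out is not stated. Tested at 30 µM. Higher reads as stronger inhibition (inferred from which compounds were picked for retests). Size under these conditions: about 67,000 compounds, about 300 of them at 50% or above in at least one test.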

The filed quantity is “Percent Effect” (%). How 0% and 100% were set is not recorded. Most values in the screen are low, and negative values occur. This is an unselected part of the compounds tested. A dash means the value is not listed here; it may have been measured.

SMILES	A	B
Cc1cc(C(=O)N2CCN(S(C)(=O)=O)[C@@H](C)C2)c(F)cc1F	6.684	-0.455
Cc1nn(C)c(C)c1C1CCCN1C(=O)c1cc[nH]n1 (stereo unspecified)	0.8772	-10.73
Cc1ccc(-n2ccc3nc(N4CCCC4)ncc3c2=O)cc1C	2.971	7.204
Cc1cc(C(=O)N2CCOC(c3nc(C(C)C)n[nH]3)C2)c(C)s1 (stereo unspecified)	-2.887	-17.14
F[C@@H]1CN(CC2CC2)C[C@@H]1OCc1nc2ncccc2[nH]1	-3.566	-34.1
CNC(=O)N1CC[C@H]2N(C)CC[C@@]2(C(=O)N2CCOCC2)CC1	-3.634	-22.59
NS(=O)(=O)CCNC(=O)c1cc(Br)c2c(c1)OCCO2	-3.336	-
CCC(NCCn1cccn1)C(=O)Nc1cc(C)on1 (stereo unspecified)	-2.549	0.6964
O=C(C1CC(c2ccccc2)=NO1)N1CCc2ccccc21 (stereo unspecified)	0.1361	-23.73
COCCNC(=O)[C@H]1C[C@@](CC(C)C)(C(=O)O)N(C)[C@H]1c1cccnc1	1.31	-24.23
Cc1cccc(CNC2CC(=O)N(CCc3cccc(Cl)c3)C2)n1 (stereo unspecified)	-0.7656	14.22
COCCN1CCC2(CC1)CC(Nc1ccc(C)nn1)CO2 (stereo unspecified)	0.2907	-28.24
NC(=O)[C@@H]1CCCN1C(=O)c1csc(-c2ccc(C(F)(F)F)cc2)n1	2.196	-8.062
CCc1nc(C)c(C(=O)N(C)Cc2cnc3ccccn23)o1	3.307	-3.791
Cc1ccoc1C(=O)N1CC[C@H]2[C@H](C[C@@H](CN3CCCC3)N2C)C1	-	1.536
O=C(c1ccc(Cl)o1)N1CCCC(c2cc(C(F)(F)F)[nH]n2)C1 (stereo unspecified)	0.6823	-8.426
CCOc1ccnc(N2CCCN(c3nc(C4CC4)ns3)CC2)n1	-7.037	-5.11
CC(C)CC(=O)N1C[C@@H]2CCN(c3ncccn3)C[C@@H]2C1	-0.229	6.871
CCCN(CC1CC1)C(=O)Nc1ccc(N2CCSCC2)cc1C	-4.283	-14.04
Cc1ccc(NC(=O)NCCc2ccncc2C)c(N(C)C)n1	1.022	-2.545
CC(C)c1nc(COc2cccc3c2NC(=O)CO3)cs1	12.23	4.289
CCN1CCN(C(=O)CCC2CCN(C(=O)CCSC)CC2)CC1	3.549	-22.71
CN(Cc1nnc(C2CC2)n1C)C1CCN(CCc2cnn(C)c2)C1 (stereo unspecified)	5.423	-18.1
Fc1ccc(OCCCN2CCCC(Cn3cncn3)C2)cc1 (stereo unspecified)	1.562	-18.06
CC(=O)c1cc(CC(=O)NCc2c(F)cccc2F)cs1	-1.316	-10.03
N#CC1(c2ccccc2)CCN(C(=O)C2CCCN(CC(N)=O)C2)CC1 (stereo unspecified)	7.152	4.969
COc1ccc(Cl)cc1C(C(=O)O)N1CCSCC1 (stereo unspecified)	-1.905	-21.5
CCC(C)Oc1cc(C(=O)Nc2nnc(C(C)C)[nH]2)ccn1 (stereo unspecified)	-2.342	-32.16
CCN1CCN(C2CCN(Cc3ccc(Cl)s3)CC2)C1=O	-0.000009	-
CN(Cc1cccc(C#N)c1)c1ncc(C(N)=O)cc1Cl	-0.5698	-7.796
CC(Cc1cn(CCc2n[nH]c(=O)[nH]2)nn1)c1ccccc1 (stereo unspecified)	-5.795	-18.83
Cc1ccnc(NC(=O)CCNC(=O)c2ccccc2Cl)c1	-4.495	0.02073
CC(Cn1cccn1)NC(=O)Nc1nccs1 (stereo unspecified)	2.158	-7.163
CC(NC(=O)NCCCc1n[nH]c(N)c1C#N)c1cccc(Cl)c1 (stereo unspecified)	-3.209	-3.217
O=C(C1CCC2(CCN(c3ncccn3)CC2)CO1)N1CCCC1 (stereo unspecified)	-3.787	-28.62
O=C(Cc1c(F)cccc1Cl)NC1CCCCNC1=O (stereo unspecified)	-0.2721	-0.1229
Cc1ccc(S(=O)(=O)N2CCC(Cn3cc(C(C)(C)N)nn3)CC2)s1	-4.214	2.142
CCOCC(=O)Nc1nccn1Cc1ccc(Br)cc1	3.667	-3.941
Cc1ccc(C(=O)N2CC[C@@H]3[C@H]2CCC(=O)N3CC2CC2)o1	0.7752	-40
Cn1cc(CN2CCN3C[C@H](Oc4cccnc4)C[C@H]3C2)cn1	1.627	12.41
O=C1[C@H]2CN(Cc3ccoc3)C[C@H]2CN1CCN1CCCC1	-3.198	-15.41
CCCn1c(NC(=O)CNC(=O)OCC)nc2ccccc21	-1.815	-9.713
COc1ccnc(N2CCN(C(=O)c3cccc(C#N)c3)CC2)n1	-3.712	-9.437
CCNC(=O)CNC(=O)Nc1c(F)cc(F)cc1-c1ccccc1	-0.4428	-5.949
FC(F)Oc1ccc(NCc2nc(C3CC3)no2)c(OC(F)F)c1	0.5236	-43.92
Cc1cc(NC(=O)CN2CCn3c(nnc3C(C)C)C2)on1	2.197	-1.629
CCOc1cccc(CNC(=O)C(C)(C)C#N)c1OC(F)F	-4.054	-24.31
O=C(NCCSCc1cccs1)C1CCCN(C(=O)N2CCCC2)C1 (stereo unspecified)	0.1818	-16.34
CC(C)CNC(=O)CN1C=Nc2ccccc2S1(=O)=O	1.267	-12.93

The last 3 entries again:

For CCOc1cccc(CNC(=O)C(C)(C)C#N)c1OC(F)F the result was A: -4.054%; B: -24.31%.
For O=C(NCCSCc1cccs1)C1CCCN(C(=O)N2CCCC2)C1 (stereo unspecified) the result was A: 0.1818%; B: -16.34%.
For CC(C)CNC(=O)CN1C=Nc2ccccc2S1(=O)=O the result was A: 1.267%; B: -12.93%.

The values are deposited in ChEMBL (CHEMBL3988442, “University of Dundee, Small-Polar-MMV Screening Library” (2021)).